The results in this text go back to publication PMC10329249.

Results are given in words; binding and its absence hold for the method and conditions named. Binding seen in cells or lysates may run through a third protein. Some binding calls cover weakened binding; strength is not graded here. Where a sequence is shown, tags or fusion partners need not be part of it.

The assay deals with T1, N-acetylglucosaminyltransferase V (MGAT5) (human (endogenous in AGS)) (UniProt Q09328).
T1 sequence: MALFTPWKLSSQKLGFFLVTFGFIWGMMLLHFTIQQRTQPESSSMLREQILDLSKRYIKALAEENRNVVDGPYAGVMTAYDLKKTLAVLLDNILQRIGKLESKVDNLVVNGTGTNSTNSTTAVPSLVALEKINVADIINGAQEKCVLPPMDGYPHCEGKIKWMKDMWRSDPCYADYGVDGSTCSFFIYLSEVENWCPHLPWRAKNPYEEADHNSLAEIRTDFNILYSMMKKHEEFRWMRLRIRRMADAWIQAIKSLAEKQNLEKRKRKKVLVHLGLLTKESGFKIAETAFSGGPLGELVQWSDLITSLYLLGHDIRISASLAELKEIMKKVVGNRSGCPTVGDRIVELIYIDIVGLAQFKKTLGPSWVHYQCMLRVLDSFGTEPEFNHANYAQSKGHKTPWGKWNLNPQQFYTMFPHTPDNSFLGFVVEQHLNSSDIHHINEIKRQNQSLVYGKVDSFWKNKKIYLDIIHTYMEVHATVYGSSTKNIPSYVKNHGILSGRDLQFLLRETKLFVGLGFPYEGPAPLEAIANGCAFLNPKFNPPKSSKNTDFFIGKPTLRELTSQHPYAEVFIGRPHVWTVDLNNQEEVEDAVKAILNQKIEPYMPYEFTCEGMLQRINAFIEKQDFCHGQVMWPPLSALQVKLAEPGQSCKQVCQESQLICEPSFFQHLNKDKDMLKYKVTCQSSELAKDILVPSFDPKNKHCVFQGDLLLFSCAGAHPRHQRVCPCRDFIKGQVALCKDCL
The assay can be described thus: co-IP; cell lysates pre-cleared with protein A/G agarose beads for 3 hr at 4 °C; incubated with ISLR and MGAT5 antibodies overnight at 4 °C; precipitates analysed by Western blot.

B1: immunoglobulin superfamily containing leucine-rich repeat (ISLR) (protein, UniProt O14498 19-428)
chain: CPEPCDCGEKYGFQIADCAYRDLESVPPGFPANVTTLSLSANRLPGLPEGAFREVPLLQSLWLAHNEIRTVAAGALASLSHLKSLDLSHNLISDFAWSDLHNLSALQLLKMDSNELTFIPRDAFRSLRALRSLQLNHNRLHTLAEGTFTPLTALSHLQINENPFDCTCGIVWLKTWALTTAVSIPEQDNIACTSPHVLKGTPLSRLPPLPCSAPSVQLSYQPSQDGAELRPGFVLALHCDVDGQPAPQLHWHIQIPSGIVEITSPNVGTDGRALPGTPVASSQPRFQAFANGSLLIPDFGKLEEGTYSCLATNELGSAESSVDVALATPGEGGEDTLGRRFHGKAVEGKGCYTVDNEVQPSGPEDNVVIIYLSRAGNPEAAVAEGVPGQLPPGLLLLGQSLLLFFFLTSF
As for B1, the binding entry was “binds”.
